Biological target: T1, GFP-17
T1 construct: negatively supercharged GFP variant with 11 supercharging mutations, nominal net charge -17 at pH 7.4; also called fully supercharged GFP variant; source: designed and expressed
Experiment: FRET or BRET; dynamic subunit exchange with GFP-17nf at 25 mM NaCl; kd from a kinetic model (sequential unimolecular dissociation of monomers from the protomer) matched to the normalized FRET ratio; 0.05 uM protomer, 4 uM analogue
Settings: both partners purified

koff: 0.0025 to 0.004 s⁻¹
B1: Ceru+32b (other)
chain: MASKGEKLFKGVVPILVELKGKVNGHKFKVRGEGEGDAKNGKLRLKFICTTGKLPVPWPTLVTTLTWGVQCFSRYPDHMKRHDFFKSAMPEGYVQKRKISFKKDGTYKTRAEVKFEGKTLVNRIKLKGIKFKKDGNILGHKLRYNGISDKVYIKADKKKNGIKAKFKIRHNVKDGSVQLADHYQQNTPIGDGPKLLPRKHYLSTKSVLRKDPNEKRDHMVLLEFVTAAGITKGMDELYK
modifications: matured Cerulean chromophore (TWG); C-terminal LEHHHHHH tag left out

Reference: paper PMC9523778, “Understanding Supramolecular Assembly of Supercharged Proteins” (ACS Central Science, 2022)
